In patent US20250375459A1, “METHODS FOR AMELIORATING COGNITIVE IMPAIRMENT USING BILE ACID DERIVATIVES” (INTERCEPT PHARMACEUTICALS, INC., priority 2022, published 2025):
For at least one compound, name, drawing or mass did not settle the structure.

Legend:
C57 Blk/6 mice [1] = experiment: Immunofluorescence analysis of neurons and neural progenitors in aged mice; format: in vivo; conditions: supplement from 9 to 15 months, fed ad lib
Excerpt: FIG. 3 is a bar graph showing immunofluorescence analysis of aged mice treated with obeticholic acid (OCA), ursodeoxycholic acid (URSO), or no supplement (wild type or WT) ad libitum each at 15 months (15 mnth) vs. 9 months (9 mnth), according to the cohort study plan in FIG. 1.
(§1) Cognitive impairment is a clinical issue with age-related cognitive decline being a substantial problem in society. C57 Blk/6 mice were aged to 9 months when they started either 6 months of Ursodeoxycholic acid or Obeticholic acid therapy or were left to age naturally to 15 months. Between 9 and 15 months of age mice develop progressive cognitive decline, by 15 months, with a novel arm time of one third indicating complete loss of short-term spatial memory (FIG. 2). Y-maze testing was repeated on the animals in each group at 11 and 14 months (FIG. 2; left bars and right bars respectively). […] The effect was not only behavioral.

C57 Blk/6 mice [2] = experiment: Y-maze testing of spatial memory in aged mice cohort (non-cholestatic cognitive decline); format: in vivo
Excerpt: FIG. 1 is an illustration of an aged mice cohort study plan.
FIG. 2 is a bar graph showing the results of Y-maze testing on aged mice treated with ursodeoxycholic acid (URSO), obeticholic acid (OCA), or control at 11 and 14 months, according to the cohort study plan in FIG. 1.
as §1

SMILES: C[C@H](CCC(=O)O)[C@H]1CC[C@H]2[C@@H]3[C@@H](O)C[C@@H]4C[C@H](O)CC[C@]4(C)[C@H]3CC[C@]12C [UDCA, ursodeoxycholic acid]
- NeuN+ neuron count, neuron loss between 9 and 15 months (C57 Blk/6 mice [1]): significant loss of neurons
- Y-maze spatial memory performance between ages 11 and 14 months (C57 Blk/6 mice [2]; aged C57 Blk/6 mice, therapy started at 9 months, Y-maze at 11 and 14 months): reduced with age
- non-cholestatic (age-related) cognitive decline, loss of short-term spatial memory (C57 Blk/6 mice [2]; therapy given between 9 and 15 months of age in the diet): not
